Experimental data taken from article PMC5388737, “Exploring the Role of CYP3A4 Mediated Drug Metabolism in the Pharmacological Modulation of Nitric Oxide Production” (Frontiers in Pharmacology, 2017).

System: NO production in LPS stimulated RAW 264.7 macrophages
Assay: NO production in LPS stimulated RAW 264.7 murine macrophages (Griess assay)
Format: cell-based
Settings: Mus musculus, RAW264.7, 24 h, concentrations with viability <80% rejected
Description: The mouse macrophage cells, RAW264.7 (ATCC® TIB-71™) were obtained from ATCC and cultured in Dulbecco's Modified Eagle Medium (DMEM), supplemented with 10% FBS and 2 mM l-glutamine, in a humidified 5% CO2 atmosphere at 37°C. All cell handling steps were carried out using the SelecT automated cell culture system. RAW264.7 cells were seeded into 96-well plates at a density of 20 × 10^3 cells per well and grown to approximately 50% of confluence (24 h). They were cultured for another 24 h with each of the test compounds described above (5 μL of stock serial dilutions in 20% DMSO were dispensed into 190 μL of fresh medium using Perkin Elmer Evolution P3, Waltham, MA,). […]
Test compound activities were calculated automatically using the Genedata Screener software (Genedata AG, Basel, Switzerland), and the percentage inhibition of each commercial compound was determined by Equation (1), integrated in the Genedata Screener software. Percentage of control of production of nitric oxide was: (1) Percentage of control = (Abswell − Absneg/Abspos − Absneg) ∗ 100 where Abswell is the absorbance measured per specific well; and Abspos and Absneg are the average absorbance measured for the positive (LPS/solvent vehicle) and negative controls (-LPS/solvent vehicle, respectively). […]

Clc1ccc(COC(Cn2ccnc2)c2ccc(Cl)cc2Cl)c(Cl)c1 (stereo not shown) [Miconazole, miconazole]
IC50: 7.35 µM
